Results of single-concentration screens

Source: ChEMBL document CHEMBL3988442, “University of Dundee, Small-Polar-MMV Screening Library” (2021).

A: 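Whole-cell growth test on Mycobacterium tuberculosis, read after 3 days in glucose-containing 7H9 medium; the read-out is not stated. Tested at 50 µM. Direction is inferred from retests: higher values go with more growth inhibition. About 69,000 compounds were tested under these conditions; 1.1% (about 760) showed 50% or more at least once.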
B: 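Phenotypic screen: M. tuberculosis growth, cholesterol and DPPC medium, 4 days; the read-out is not stated. Compounds at 50 µM. Higher reads as more growth inhibition (inferred: compounds with an IC50 in retests scored well above the rest). Of about 69,000 compounds tested this way, about 370 (0.54%) reached 50% or more in at least one test.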

Results are given as percent effect. How 0% and 100% were set is not recorded. Most values in the screen are low, and negative values occur. This is an unselected part of the compounds tested. Two or more numbers in one place are separate tests of the same structure; such repeats can differ widely.

[H][C@@]12CN(CC3CC3)CCO[C@]1([H])CN(C(=O)c1ocnc1C)C2 gave A: -13.24% & -10.77%; B: -11.38%. Result for CCNc1nnc(SCC(=O)N2CCN(Cc3ccc(Cl)s3)CC2)s1 was A: 17.08% & 7.531%; B: -7.378%. Nc1nccnc1C(=O)N1CC(OCc2cccc3ccccc23)C1 read A: 7.276% & 23.69%; B: 9.683%. For [H][C@]12CC[C@]([H])(CN(Cc3ccccn3)C1)N(Cc1snnc1C)C2 the result was A: -1.116%; B: -3.856%. Result for OC1(CNCCc2csc(-c3cccnc3)n2)CCNC1 (stereo unspecified) was A: 13.43%; B: -4.053%. Result for Cn1nc(C(=O)N(CC(F)(F)F)c2cccc(Cl)c2)ccc1=O was A: -4.052% & -17.37%; B: -7.098% & -5.82%. With CCn1ncc2c1C(COC)CN(Cc1cccnc1)C2.O=C(O)C(F)(F)F.O=C(O)C(F)(F)F.O=C(O)C(F)(F)F (stereo unspecified) the screen gave A: -26.03%; B: -15.11%.

CN1CC2(CCN(Cc3ccoc3)CC2)COc2ccccc2S1(=O)=O.O=C(O)C(F)(F)F read A: -5.464%; B: -7.14%. With O=C(c1ccsc1)N1CC(C(=O)N2CCOCC2)C2(CCOCC2)C1 (stereo unspecified) the screen gave A: 9.275%; B: 8.586%. CC(C)c1ccc(CN2C(=O)C3(CCNCC3)Nc3ccccc32)cc1 read A: 75.85%; B: 34.47%. O=C(O)C(F)(F)F.O=C(O)C(F)(F)F.[H][C@@]12COC[C@H](C(=O)NCc3ccccn3)[C@]1([H])CN(c1ncccn1)C2 read A: -11.77%; B: -11.64%. With Cc1nc(C(=O)N2CCC(c3nccn3Cc3ccncc3)CC2)cs1 the screen gave A: -33.7%; B: 3.135% & -0.7149%. Cc1cc(CN(C)S(=O)(=O)N2CCCC2c2ccc(C)o2)no1 (stereo unspecified) read A: 14.26%; B: -1.273%. With O=C(O)C(F)(F)F.O=C(O)C(F)(F)F.O=C(O)C(F)(F)F.[H][C@@]12CN(Cc3cccnc3)C[C@@]1([H])N(Cc1ccncc1)C(=O)CO2 the screen gave A: -14.29%; B: -9.319%.

With CCN(CC)c1ncnc2c1CCN(CC1CCOCC1)CC2.O=C(O)C(F)(F)F the screen gave A: -20.67%; B: -16.46% & -10.2%. O=C(O)C(F)(F)F.[H][C@@]12COC[C@@H](CC(=O)N3CCCC3)[C@]1([H])CN(Cc1ccccc1)C2 gave A: 5.863%; B: -13.55%. Result for COCCN1C(=O)C2(CCC(C(=O)Nc3ccccn3)CC2)N=C1C (stereo unspecified) was A: -3.232% & 4.799%; B: -9.375%. For CC(C)c1nnc(NC(=O)N2CCN(C)CC2c2ccccc2)s1 (stereo unspecified) the result was A: 2.146%; B: 3.845%. For O=C(O)C(F)(F)F.O=C(c1ccncc1)N1CCCC2(COCCN(c3ccccc3)C2)C1 (stereo unspecified) the result was A: -12.38%; B: -19.9%. For O=C(NS(=O)(=O)c1ccccc1Cl)c1cccc2c1OCCO2 the result was A: -3.264% & 1.381%; B: -22.92%. CCOC(=O)c1cc2n(n1)CCCO2 read A: -19.59%; B: -38.21%.

With COc1cc(C)sc1C(=O)N1CCC(Nc2cccnc2)CC1 the screen gave A: 70.87%; B: 10.97%. Result for NS(=O)(=O)c1ccc(NC(=O)CSc2ccc3c(c2)CCC3)cc1 was A: -40.42%; B: -26.01% & -6.933%. With CC(C)c1noc(CCC(=O)NCC2CCOC2)n1 (stereo unspecified) the screen gave A: -16.06%; B: -14.38%. With O=C(CCn1ncc2c(Cl)cccc21)NCCCO the screen gave A: 44.91%; B: 13.3%. CCC(NC(=O)c1nn(C)cc1C(=O)O)c1ccc(C)cc1 (stereo unspecified) read A: 9.921%; B: 6.157%. For CC(C)(C)c1cc(=O)n2c(n1)SCC(C(=O)NCc1ccco1)C2 (stereo unspecified) the result was A: -6.909%; B: -7.215%. CCc1nnc2n1CCN(C(=O)c1ccc(-c3ccco3)[nH]c1=O)C2 read A: -20.24%; B: 2.377%.

Result for COCCOc1cccc(C(=O)N2CCCC(n3cccn3)C2)c1 (stereo unspecified) was A: 7.065%; B: -7.752%. For N#Cc1cc(F)ccc1NCC1CCN(S(=O)(=O)C(F)F)CC1 the result was A: 23.28% & 5.148%; B: -0.4557%. Cc1cccc(CNC(Cc2ccsc2)c2nc(C)c(C)s2)n1.Cl (stereo unspecified) read A: 63.49%; B: 33.61%. CCOC(=O)CNC(=O)N1CCc2onc(-c3ccc(Cl)cc3)c2C1 gave A: 1.327%; B: 1.763%. Result for CCc1nn(C)c(Cl)c1CN1CCC(c2cc(O)nc(C)n2)CC1 was A: -4.132%; B: 6.211%.

The last 4 entries again:

* N#Cc1cc(F)ccc1NCC1CCN(S(=O)(=O)C(F)F)CC1 : A: 23.28% & 5.148%; B: -0.4557%
* Cc1cccc(CNC(Cc2ccsc2)c2nc(C)c(C)s2)n1.Cl (stereo unspecified) : A: 63.49%; B: 33.61%
* CCOC(=O)CNC(=O)N1CCc2onc(-c3ccc(Cl)cc3)c2C1 : A: 1.327%; B: 1.763%
* CCc1nn(C)c(Cl)c1CN1CCC(c2cc(O)nc(C)n2)CC1 : A: -4.132%; B: 6.211%